Assay results reported in the M2OR odorant receptor database.
Residue numbers refer to the chain shown, from its start. The entries are a selection whose mix differs from that of the whole data set. The calls were merged from several studies; some rest on single wells. The list shows a part of the results. This is one part of the list.

Chains of the proteins cited; added tags and fusions are not shown. A line that says so, or that is headed by a name, gives the form on record, which may keep a tag or linker.
OR2W1, as listed by the source: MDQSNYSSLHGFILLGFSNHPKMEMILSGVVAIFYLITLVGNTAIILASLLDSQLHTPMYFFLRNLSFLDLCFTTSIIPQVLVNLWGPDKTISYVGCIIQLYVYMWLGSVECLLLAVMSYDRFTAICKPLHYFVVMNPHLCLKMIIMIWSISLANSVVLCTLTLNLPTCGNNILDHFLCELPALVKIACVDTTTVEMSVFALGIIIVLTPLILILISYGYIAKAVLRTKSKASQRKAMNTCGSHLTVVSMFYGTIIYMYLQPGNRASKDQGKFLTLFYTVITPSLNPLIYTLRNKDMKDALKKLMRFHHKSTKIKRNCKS

Key:
Conditions in all cases: stereoisomer not certain
OR2T5 = system: T1, OR2T5
T1 sequence (whole entry): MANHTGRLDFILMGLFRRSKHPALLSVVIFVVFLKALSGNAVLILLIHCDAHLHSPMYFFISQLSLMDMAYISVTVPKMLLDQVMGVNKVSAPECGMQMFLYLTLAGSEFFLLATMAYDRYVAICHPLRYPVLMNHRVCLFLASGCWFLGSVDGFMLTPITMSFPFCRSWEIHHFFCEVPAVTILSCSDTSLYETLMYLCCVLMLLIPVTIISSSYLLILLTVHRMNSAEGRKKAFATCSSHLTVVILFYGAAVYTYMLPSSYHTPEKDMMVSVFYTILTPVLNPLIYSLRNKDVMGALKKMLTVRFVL
How it was run: (§1)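 Whether a receptor–molecule pair is responsive (active) rests on the original authors' judgment that its measured signal was statistically different from baseline. Pairs without that judgment are non-responsive (inactive). Sources used varied assay methods, commonly transient luciferase assays in mammalian cell lines.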

OR2T6 = system: T2, OR2T6
T2 sequence (whole entry): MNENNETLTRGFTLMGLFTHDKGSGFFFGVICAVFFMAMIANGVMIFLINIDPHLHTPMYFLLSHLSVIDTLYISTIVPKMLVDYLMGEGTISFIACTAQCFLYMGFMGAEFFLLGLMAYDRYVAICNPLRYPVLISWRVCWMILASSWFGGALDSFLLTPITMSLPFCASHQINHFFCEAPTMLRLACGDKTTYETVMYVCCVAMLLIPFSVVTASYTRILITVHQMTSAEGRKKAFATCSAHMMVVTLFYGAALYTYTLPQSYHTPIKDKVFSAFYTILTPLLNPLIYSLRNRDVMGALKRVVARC
How it was run: as §1

OR2T8 = system: T3, OR2T8
T3 sequence (whole entry): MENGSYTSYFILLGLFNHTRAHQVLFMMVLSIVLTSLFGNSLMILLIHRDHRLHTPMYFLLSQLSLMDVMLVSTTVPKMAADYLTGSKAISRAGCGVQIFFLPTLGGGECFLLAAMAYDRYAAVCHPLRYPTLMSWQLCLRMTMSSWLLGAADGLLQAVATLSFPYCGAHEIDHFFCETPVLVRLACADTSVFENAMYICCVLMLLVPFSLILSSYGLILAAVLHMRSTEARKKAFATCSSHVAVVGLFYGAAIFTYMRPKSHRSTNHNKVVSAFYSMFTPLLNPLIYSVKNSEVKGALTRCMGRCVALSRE
How it was run: as §1

OR2V1 = system: T4, OR2V1
T4 sequence (whole entry): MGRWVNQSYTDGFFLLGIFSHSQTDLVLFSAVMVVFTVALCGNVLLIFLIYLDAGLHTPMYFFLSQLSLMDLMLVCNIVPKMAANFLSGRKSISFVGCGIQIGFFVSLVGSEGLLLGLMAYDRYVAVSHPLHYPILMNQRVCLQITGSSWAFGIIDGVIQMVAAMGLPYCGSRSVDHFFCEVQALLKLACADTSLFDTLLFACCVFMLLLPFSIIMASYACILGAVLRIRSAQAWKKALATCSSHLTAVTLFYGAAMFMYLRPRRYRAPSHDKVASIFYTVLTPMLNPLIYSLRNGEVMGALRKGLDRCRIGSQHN
How it was run: as §1

OR2V2 = system: T5, OR2V2
T5 sequence (whole entry): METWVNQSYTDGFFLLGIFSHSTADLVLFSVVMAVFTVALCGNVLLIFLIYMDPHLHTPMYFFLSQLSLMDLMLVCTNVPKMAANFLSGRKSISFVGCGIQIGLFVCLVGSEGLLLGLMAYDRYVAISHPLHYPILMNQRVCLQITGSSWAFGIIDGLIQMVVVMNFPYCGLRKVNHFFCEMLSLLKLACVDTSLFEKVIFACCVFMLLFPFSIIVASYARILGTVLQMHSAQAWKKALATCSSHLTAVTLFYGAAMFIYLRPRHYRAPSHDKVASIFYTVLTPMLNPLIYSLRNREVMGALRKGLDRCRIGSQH
How it was run: as §1

OR2W1 [1] = system: T6, OR2W1
T6 sequence (whole entry): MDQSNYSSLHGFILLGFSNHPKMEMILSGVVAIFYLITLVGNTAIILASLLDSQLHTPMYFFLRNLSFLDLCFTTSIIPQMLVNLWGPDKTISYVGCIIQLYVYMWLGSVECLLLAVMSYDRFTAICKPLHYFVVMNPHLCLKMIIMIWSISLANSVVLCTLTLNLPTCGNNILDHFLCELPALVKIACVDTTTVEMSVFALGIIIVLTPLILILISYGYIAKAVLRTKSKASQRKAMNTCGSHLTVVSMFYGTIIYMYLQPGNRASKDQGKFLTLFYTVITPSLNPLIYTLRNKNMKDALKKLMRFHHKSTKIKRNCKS
How it was run: as §1

OR2W3 (Homo sapiens) = target: T7, OR2W3 (Homo sapiens) (UniProt Q7Z3T1)
T7 sequence (whole entry): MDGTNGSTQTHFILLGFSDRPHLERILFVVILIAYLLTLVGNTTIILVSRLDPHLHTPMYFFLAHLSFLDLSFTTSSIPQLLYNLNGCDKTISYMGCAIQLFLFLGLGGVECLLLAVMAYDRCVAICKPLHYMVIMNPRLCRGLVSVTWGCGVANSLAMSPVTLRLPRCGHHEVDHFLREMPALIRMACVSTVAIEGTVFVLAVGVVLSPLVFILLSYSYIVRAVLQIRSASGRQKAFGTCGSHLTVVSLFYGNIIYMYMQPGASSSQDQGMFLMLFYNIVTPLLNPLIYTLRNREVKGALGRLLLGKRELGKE
How it was run: as §1

OR2W3 = system: T8, OR2W3
T8 sequence (whole entry): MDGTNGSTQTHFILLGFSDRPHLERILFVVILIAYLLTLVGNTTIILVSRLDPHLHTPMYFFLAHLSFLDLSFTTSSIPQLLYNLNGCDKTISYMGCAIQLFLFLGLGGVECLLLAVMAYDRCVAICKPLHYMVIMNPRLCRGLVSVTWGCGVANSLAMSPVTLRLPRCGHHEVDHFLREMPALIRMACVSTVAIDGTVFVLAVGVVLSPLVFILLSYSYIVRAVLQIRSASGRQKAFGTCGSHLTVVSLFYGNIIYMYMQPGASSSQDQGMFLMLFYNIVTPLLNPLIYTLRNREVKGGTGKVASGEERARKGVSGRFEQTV
How it was run: as §1

OR2W5P (Homo sapiens) = target: T9, OR2W5P (Homo sapiens) (UniProt A6NFC9)
T9 sequence (whole entry): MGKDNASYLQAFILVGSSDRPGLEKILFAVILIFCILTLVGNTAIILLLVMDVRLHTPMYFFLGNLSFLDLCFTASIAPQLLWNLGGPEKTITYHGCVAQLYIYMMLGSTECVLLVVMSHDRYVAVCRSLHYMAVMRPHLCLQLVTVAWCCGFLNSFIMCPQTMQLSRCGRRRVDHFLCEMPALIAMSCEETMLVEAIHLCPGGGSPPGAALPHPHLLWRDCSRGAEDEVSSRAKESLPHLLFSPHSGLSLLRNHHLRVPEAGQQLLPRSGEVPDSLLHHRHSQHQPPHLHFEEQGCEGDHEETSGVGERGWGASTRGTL
How it was run: as §1

OR2Y1 = system: T10, OR2Y1
T10 sequence (whole entry): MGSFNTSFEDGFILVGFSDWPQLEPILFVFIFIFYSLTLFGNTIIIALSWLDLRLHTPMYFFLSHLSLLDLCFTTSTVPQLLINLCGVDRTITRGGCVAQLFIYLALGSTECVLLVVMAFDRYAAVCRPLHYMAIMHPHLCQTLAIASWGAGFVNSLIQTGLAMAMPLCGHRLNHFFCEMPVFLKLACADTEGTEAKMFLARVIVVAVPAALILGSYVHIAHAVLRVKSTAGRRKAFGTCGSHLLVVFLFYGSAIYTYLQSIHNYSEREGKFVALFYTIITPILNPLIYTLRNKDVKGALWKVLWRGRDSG
How it was run: as §1

OR2Z1 (Homo sapiens) = target: T11, OR2Z1 (Homo sapiens) (UniProt Q8NG97)
T11 sequence (whole entry): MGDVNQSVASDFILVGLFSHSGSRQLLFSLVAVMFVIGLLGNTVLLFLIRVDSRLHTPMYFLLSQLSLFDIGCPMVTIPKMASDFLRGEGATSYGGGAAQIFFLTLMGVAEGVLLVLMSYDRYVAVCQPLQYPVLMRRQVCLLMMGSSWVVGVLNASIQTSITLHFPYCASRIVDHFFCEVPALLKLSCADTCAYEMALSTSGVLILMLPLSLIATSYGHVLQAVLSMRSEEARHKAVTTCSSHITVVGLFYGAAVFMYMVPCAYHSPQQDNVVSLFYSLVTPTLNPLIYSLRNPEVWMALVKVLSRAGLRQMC
How it was run: as §1

OR3A1 (Homo sapiens) = target: T12, OR3A1 (Homo sapiens) (UniProt P47881)
T12 sequence (whole entry): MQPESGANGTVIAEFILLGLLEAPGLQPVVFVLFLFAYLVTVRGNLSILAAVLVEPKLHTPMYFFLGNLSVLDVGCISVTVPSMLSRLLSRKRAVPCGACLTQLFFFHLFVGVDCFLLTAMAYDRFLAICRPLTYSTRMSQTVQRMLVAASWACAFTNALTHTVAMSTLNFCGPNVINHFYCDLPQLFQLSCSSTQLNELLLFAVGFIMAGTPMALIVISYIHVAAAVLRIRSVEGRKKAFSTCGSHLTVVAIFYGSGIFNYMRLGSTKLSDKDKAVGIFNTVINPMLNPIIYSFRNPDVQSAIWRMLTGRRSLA
How it was run: as §1

OR3A2 (Homo sapiens) = target: T13, OR3A2 (Homo sapiens) (UniProt P47893)
T13 sequence (whole entry): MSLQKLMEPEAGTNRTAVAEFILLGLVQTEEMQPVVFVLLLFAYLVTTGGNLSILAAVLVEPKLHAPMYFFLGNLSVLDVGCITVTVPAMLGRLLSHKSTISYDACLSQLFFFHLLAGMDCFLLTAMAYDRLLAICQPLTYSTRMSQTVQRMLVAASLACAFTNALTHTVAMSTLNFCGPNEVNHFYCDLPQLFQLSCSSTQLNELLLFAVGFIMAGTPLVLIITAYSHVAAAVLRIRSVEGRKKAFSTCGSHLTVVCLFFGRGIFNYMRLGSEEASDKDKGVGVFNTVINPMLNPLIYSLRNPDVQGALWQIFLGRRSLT
How it was run: as §1

OR2W1 (Homo sapiens) = target: T14, OR2W1 (Homo sapiens) (UniProt Q9Y3N9)
T14 sequence (whole entry): T6 sequence (whole entry) with N296D
How it was run: as §1

OR2W1 [2] = system: T15, OR2W1; remark: listed apart in the source
T15 sequence (whole entry): T6 sequence (whole entry) with M81V, N296D
How it was run: as §1
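Note: active if original authors judged signal statistically different from baseline.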

Compound	odorant receptor agonist call (OR2T5)	odorant receptor agonist call (OR2T6)	odorant receptor agonist call (OR2T8)	odorant receptor agonist call (OR2V1)	odorant receptor agonist call (OR2V2)	odorant receptor agonist call (OR2W1 [1])	odorant receptor agonist call (OR2W3 (Homo sapiens))	odorant receptor agonist call (OR2W3)	odorant receptor agonist call (OR2W5P (Homo sapiens))	odorant receptor agonist call (OR2Y1)	odorant receptor agonist call (OR2Z1 (Homo sapiens))	odorant receptor agonist call (OR3A1 (Homo sapiens))	odorant receptor agonist call (OR3A2 (Homo sapiens))	odorant receptor agonist call (OR2W1 (Homo sapiens))	odorant receptor agonist call (OR2W1 [2])
CCCCO	inactive	inactive	inactive	inactive	inactive	inactive	inactive	inactive	inactive	inactive	inactive	inactive	inactive		
O=C1CCCCC1	inactive	inactive			inactive	inactive		inactive	inactive	inactive	inactive	inactive	inactive	inactive	
CCCCCCCOC(C)=O	inactive	inactive	inactive	inactive	inactive	inactive		inactive	inactive	inactive	inactive	inactive	inactive	active	
CCCCCCC=O														active	
CCCCCCCC=CC=O	inactive	inactive	inactive	inactive	inactive	inactive		active	inactive	inactive	inactive	inactive	inactive		
CCCCCCCCC=O						active	inactive							active	active
CC(=O)c1ccccc1	inactive	inactive			inactive	active		inactive	inactive	inactive	active	active	active	active	
COC(=O)c1ccccc1	inactive	inactive			inactive	active		inactive	inactive	active	inactive	inactive	inactive	active	inactive
CCCCCCCCOC(C)=O	inactive	inactive	inactive	inactive	inactive	inactive		inactive	inactive	inactive	inactive	inactive	inactive	inactive	
CC1=NC(C)SC1C (configuration not stated)	inactive	inactive			inactive	inactive		inactive	inactive	inactive	active	inactive	inactive	inactive	
CC12C=CCC1C1CCC3=CC(=O)CCC3(C)C1CC2 (configuration not stated)	inactive	inactive	inactive	inactive	inactive	inactive		inactive	inactive	active	inactive	inactive	active	inactive	
COc1cc(C)ccc1O	inactive	inactive	inactive	inactive	inactive	inactive		inactive	inactive	inactive	inactive	inactive	inactive		
CCCCCC(C)=O	inactive	inactive			inactive	inactive		inactive	inactive	inactive	inactive	inactive	inactive	active	
CCC1(O)C2(C)CCC(C2)C1(C)C (configuration not stated)	inactive	inactive	inactive	inactive	inactive	inactive		inactive	inactive	inactive	inactive	inactive	inactive	active	
CC(=O)C(C)=O	inactive	inactive	inactive	inactive	inactive	inactive		inactive	inactive	inactive	inactive	inactive	inactive		

Some values from the entries so far:
odorant receptor agonist call (OR2T5) with COc1cc(C)ccc1O is entered as inactive
odorant receptor agonist call (OR2W3) with CC1=NC(C)SC1C (configuration not stated) is entered as inactive
